Tested on: SK&F-AAD-609
Test: Susceptibility of SK&F-AAD-609 to antibiotics (diffusion method, BBL susceptibility disks)
Assay type: cell-based, Kibdelosporangium aridum subsp. largum
Details: disk 2 μg; 28° C., one week
Procedure: Susceptibility of SK&F-AAD-609 to antibiotics was examined by placing BBL susceptibility disks on nutrient agar plates seeded with SK&F-ADD-609 as an agar overlay. Plates were placed at 4° C. for one hour to permit diffusion of the anitbiotics and, subsequently, incubated at 28° C. Diameters of the zones of inhibition were measured after incubation for one week.
Susceptibility to Antibiotics. […] Chlortetracycline (5 μg) produced 17-18 mm zones of inhibition; tetracycline (5 μg) 9-12 mm zones; rifampin (5 μg) 10-12 mm zones; novobiocin (5 μg) 30-35 mm zones. All zones of inhibition contained at least a few resistant colonies.

## CCC[C@@H]1C[C@@H](C(=O)N[C@@H]([C@H]2O[C@H](SC)[C@H](O)[C@@H](O)[C@H]2O)[C@H](C)Cl)N(C)C1 [clindamycin]
  Susceptibility (diffusion method): resistant

Source: patent US4694069A, “Kibdelosporangium aridum SK&F-AAD-609” (SmithKline Beckman Corporation, priority 1985, dated 1987)
